Assay results from patent US20240218063A1 (HARPOON THERAPEUTICS, published 2024).
No constants are given. Whether binding was seen depends on the method and setting. Some results given as binding are weak or reduced against the parent protein; the word gives no strength.

Target: cynomolgus DLL3 (cynomolgus)
Test: BLI (Octet)

| Binder | binding |
| --- | --- |
| anti-DLL3 trispecific protein 1H012 (other, not shown: small tags and cut ends) EVQLVESGGGLVQPGGSLTLSCVASGSTSSINAMGWYRRAPGKQRELVAGISSDGSKVYVDSVKGRFTISRDNAKNSVYLQMNSLRAEDTAVYYCYYFRTVSGSSMPYWGQGTLVTVSS | binds |
| anti-DLL3 trispecific protein 4H011 (other, not shown: small tags and cut ends) EVQLVESGGGLVQPGGSLTLSCAASGSSVSRLSMAWYRQAPGKKRELVAGISVDGSTDYIDSVKGRFTISRDNAKNSVYLQMNSLRAEDTAVYYCYAYRWTTRLTYWGQGTLVTVSS | binds |
